Record: PubChem BioAssay AID1259299 (Sanger Institute, 2017)
Shown is a random part of 794 reagents. 9 of them (1.1%) were called active. 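Calls rest on knock-down alone; synergy scores play no part in calls, and no gene passed the synergy cut.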 A number with no mark means an inactive call. No viability above 1 is reported: the scale is capped. Not all columns of the deposit are shown. Not stated in the record: the amount of reagent, the time to read-out.

- Aim: 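Knock-down screen of kinome and colorectal mutation genes alongside three targeted drugs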 (primary screen)
- System: human CAR1 colorectal cancer cells
- Reagents: siRNA pool against human genes
- Conditions: anchor drug BYL719 1 µM, cetuximab 5 µg/ml or trametinib 10 nM, or DMSO vehicle alone; exposure length not given
- Detection: 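Cell viability as fraction of non-targeting siRNA wells, mean of replicates, with robust z-score and a synergy score for each of three drugs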
- Scale: viability robust z-score, knock-down alone and viability, knock-down alone (DMSO): higher = more viable cells; synergy score with BYL719 and synergy score with cetuximab: higher = stronger synergy with drug (synthetic lethal)
- Hit rule: 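a gene is called essential if its knock-down-alone viability z-score drops under -3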
- Meaning of the calls: active = essential (knock-down alone); inactive = no change

no.	Target gene	viability robust z-score, knock-down alone	viability, knock-down alone (DMSO) (fraction of control)	synergy score with BYL719	synergy score with cetuximab
1	CKS1B (CDC28 protein kinase regulatory subunit 1B)	0.789	1	-0.0845	0.0449
2	TSSK4 (testis specific serine kinase 4)	0.789	1	-0.0969	-0.045
3	TWF2 (twinfilin actin binding protein 2)	-0.709	0.862	-0.16	-0.092
4	CALM3 (calmodulin 3)	-0.796	0.854	-0.012	-0.0148
5	INSR (insulin receptor)	0.417	0.966	-0.215	-0.105
6	CKMT2 (creatine kinase, mitochondrial 2)	0.789	1	-0.0505	-0.0401
7	CAMK4 (calcium/calmodulin dependent protein kinase IV)	0.789	1	-0.153	-0.0704
8	PIP4K2B (phosphatidylinositol-5-phosphate 4-kinase type 2 beta)	0.215	0.947	0.0155	-0.122
9	KCNH8 (potassium voltage-gated channel subfamily H member 8)	-0.215	0.907	-0.109	0.0507
10	AKAP9 (A-kinase anchoring protein 9)	-0.317	0.898	-0.115	-0.0408
11	IKBKB (inhibitor of nuclear factor kappa B kinase subunit beta)	-0.399	0.89	-0.179	-0.126
12	STK33 (serine/threonine kinase 33)	-0.556	0.876	-0.106	-0.163
13	NTN4 (netrin 4)	-0.339	0.896	-0.227	-0.0872
14	PDK2 (pyruvate dehydrogenase kinase 2)	-1.6	0.78	-0.205	-0.176
15	STKLD1 (serine/threonine kinase like domain containing 1)	0.789	1	-0.0399	0.0504
16	CIT (citron rho-interacting serine/threonine kinase)	-0.901	0.844	0.102	0.0664
17	EFNA5 (ephrin A5)	-0.318	0.898	-0.287	-0.168
18	NME2 (NME/NM23 nucleoside diphosphate kinase 2)	0.789	1	-0.075	-0.0691
19	IRAK3 (interleukin 1 receptor associated kinase 3)	-1.7	0.77	-0.0608	-0.136
20	HK1 (hexokinase 1)	0.789	1	-0.179	-0.0496
21	NEK10 (NIMA related kinase 10)	0.789	1	-0.00282	0.0221
22	PTK6 (protein tyrosine kinase 6)	0.789	1	-0.12	-0.073
23	PRKAB2 (protein kinase AMP-activated non-catalytic subunit beta 2)	-0.267	0.902	0.0833	0.0067
24	MAP3K4 (mitogen-activated protein kinase kinase kinase 4)	0.789	1	-0.195	-0.073
25	CDK6 (cyclin dependent kinase 6)	0.538	0.977	-0.028	0.0294
26	TESK1 (testis associated actin remodelling kinase 1)	0.789	1	-0.0679	-0.0401
27	NME5 (NME/NM23 family member 5)	0.789	1	-0.0659	-0.0226
28	PRKACB (protein kinase cAMP-activated catalytic subunit beta)	0.789	1	-0.118	-0.073
29	PNCK (pregnancy up-regulated nonubiquitous CaM kinase)	0.789	1	-0.0269	-0.073
30	PRKCD (protein kinase C delta)	0.551	0.978	-0.083	0.0575
31	MAP2K7 (mitogen-activated protein kinase kinase 7)	0.638	0.986	-0.0036	-0.000938
32	IRAK2 (interleukin 1 receptor associated kinase 2)	0.445	0.968	-0.0701	0.059
33	GUCY2D (guanylate cyclase 2D, retinal)	-5.83 (active)	0.389	-0.132	-0.0145
34	RPS6KC1 (ribosomal protein S6 kinase C1)	0.354	0.96	-0.0881	-0.0799

Active calls, of those listed so far:
Target gene	viability robust z-score, knock-down alone	viability, knock-down alone (DMSO) (fraction of control)	synergy score with BYL719	synergy score with cetuximab
GUCY2D (guanylate cyclase 2D, retinal)	-5.83 (active)	0.389	-0.132	-0.0145
